{"source": "paper PMC9930781", "about": "“Design, synthesis, docking, and anticancer evaluations of new thiazolo[3,2-a] pyrimidines as topoisomerase II inhibitors” (Journal of Enzyme Inhibition and Medicinal Chemistry, 2023)", "assay": "In vitro cytotoxicity on WI-38 human cell line (MTT)", "format": "cell-based", "details": "WI-38 normal fibroblast cells, WI-38 normal fibroblasts", "method": "Cell line cells were provided from the American Type Culture Collection cultured in DMEM (Invitrogen/Life Technologies) with 10% FBS (Hyclone), 1% penicillin-streptomycin, and 10 μg/mL insulin (Sigma). The remainder of the chemicals and reagents were provided by either Sigma or Invitrogen. Prior to the MTT assay, plated cells were incubated for 24 h in a 96-well plate with 100 μl of the test substance per well and 100 μl of complete growth medium (cell density 1.2–1.8 × 10,000 cells/well). Cultures were transferred from the incubator and placed in a sterile work area or laminar flow hood. Then, 10% of the culture medium volume of reconstituted MTT was added, and the cultures were incubated for an additional 2 h. After that, cultures were taken out of the incubator, and the formazan crystals were dissolved using MTT solubilising solution [M-8910] in an amount equal to the volume of the original culture medium. The absorbance at 570 nm was measured. Finally, the IC50 of the test compound compared to the reference was calculated using the GraphPad Prism software."}
{"smiles": "COc1cccc2c1C(=O)c1c(O)c3c(c(O)c1C2=O)C[C@@](O)(C(=O)CO)C[C@@H]3O[C@H]1C[C@H](N)[C@H](O)[C@H](C)O1", "note": "[Doxorubicin, reference compound]", "values": [{"measurement": "IC50 at 24 h", "value": "10.4 ± 0.56", "unit": "µM"}]}
